PubChem BioAssay AID504804 – Drosophila RNAi Screening Center – 2011

Screen: 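Knock-downs shielding fly cells from apoptosis caused by DNA damage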 (primary screen)
Cells: Drosophila Kc cells
Reagents: long dsRNA against Drosophila genes, 0.5 µg dsRNA per well
Duration: 96 h (48 h knock-down, then 48 h drug)
Challenge: doxorubicin 5 µg/ml for 48 h, added 48 h after dsRNA
Measurement: 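Viability measured as cellular ATP by luminescence after 48 h knock-down then 48 h doxorubicin at 5 µg/ml; unnormalised plate counts for each replicate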
Reading the numbers: raw ATP luminescence: higher = more viable cells, protection from doxorubicin
Hit rule: 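z-score of 2 or more over plate mean in both duplicates, retained only when retests and separate dsRNAs confirm the protection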
The screen tested about 19,000 reagents; below is an unselected part of those with a known target gene and a result. Over the whole deposit, 47 (0.25%) are marked active. 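Signals are raw, not normalised; exact z-scores behind calls not deposited; actives needed confirmation, so some wells reaching 2 SD are inactive.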 Unmarked entries are inactive. The numbers tell different reagents against one gene apart. A plus sign joins genes that one reagent is predicted to hit. No sequences are given here.

What is on record for CG15676?
raw ATP luminescence, replicate 1: 64767; raw ATP luminescence, replicate 2: 68373

With Polr1H, what was measured?
raw ATP luminescence, replicate 1: 50290; raw ATP luminescence, replicate 2: 62057

With Gasp, what does the deposit list?
raw ATP luminescence, replicate 1: 1.03e5; raw ATP luminescence, replicate 2: 37807

What is on record for CG6726?
raw ATP luminescence, replicate 1: 98560; raw ATP luminescence, replicate 2: 66630

How did the screen score CG9297?
raw ATP luminescence, replicate 1: 48980; raw ATP luminescence, replicate 2: 26070

What did the screen give for CG11333?
raw ATP luminescence, replicate 1: 38320; raw ATP luminescence, replicate 2: 45730

For Prosalpha2, what was measured?
raw ATP luminescence, replicate 1: 61327; raw ATP luminescence, replicate 2: 50453

In a second layout: 2 of the entries above.
Target gene,reagent no.,"raw ATP luminescence, replicate 1","raw ATP luminescence, replicate 2"
Gasp,1,1.03e5,37807
CG6726,1,98560,66630

Next results follow:
With tyf, what does the deposit list?
raw ATP luminescence, replicate 1: 34130; raw ATP luminescence, replicate 2: 50660

For CG11563, how do the results read?
raw ATP luminescence, replicate 1: 42540; raw ATP luminescence, replicate 2: 38840

With cyp33 + CG34194, how do the results read?
raw ATP luminescence, replicate 1: 1.35e5; raw ATP luminescence, replicate 2: 95747

What is on record for CG8837?
raw ATP luminescence, replicate 1: 29160; raw ATP luminescence, replicate 2: 27657

With CG34159, what was measured?
raw ATP luminescence, replicate 1: 19650; raw ATP luminescence, replicate 2: 20650

For CG13727, how do the results read?
raw ATP luminescence, replicate 1: 45047; raw ATP luminescence, replicate 2: 40197

Which result is listed for Jon25Biii?
raw ATP luminescence, replicate 1: 23940; raw ATP luminescence, replicate 2: 27227

What did the screen give for Rad51D?
raw ATP luminescence, replicate 1: 56593; raw ATP luminescence, replicate 2: 74163

For Uro, what does the deposit list?
raw ATP luminescence, replicate 1: 19030; raw ATP luminescence, replicate 2: 23713

With CG13771, what was measured?
raw ATP luminescence, replicate 1: 28413; raw ATP luminescence, replicate 2: 25060

For CG33330 (retired record) #1, how do the results read?
raw ATP luminescence, replicate 1: 46323; raw ATP luminescence, replicate 2: 47004

What did the screen give for CG33330 (retired record) #2?
raw ATP luminescence, replicate 1: 77643; raw ATP luminescence, replicate 2: 43480
